## Primary screen of a compound library

Protein sequences, listed by entry. Tags and fused reporters are not part of them. Residues count along the entry.
UniProt Q8IDJ8, 1-583: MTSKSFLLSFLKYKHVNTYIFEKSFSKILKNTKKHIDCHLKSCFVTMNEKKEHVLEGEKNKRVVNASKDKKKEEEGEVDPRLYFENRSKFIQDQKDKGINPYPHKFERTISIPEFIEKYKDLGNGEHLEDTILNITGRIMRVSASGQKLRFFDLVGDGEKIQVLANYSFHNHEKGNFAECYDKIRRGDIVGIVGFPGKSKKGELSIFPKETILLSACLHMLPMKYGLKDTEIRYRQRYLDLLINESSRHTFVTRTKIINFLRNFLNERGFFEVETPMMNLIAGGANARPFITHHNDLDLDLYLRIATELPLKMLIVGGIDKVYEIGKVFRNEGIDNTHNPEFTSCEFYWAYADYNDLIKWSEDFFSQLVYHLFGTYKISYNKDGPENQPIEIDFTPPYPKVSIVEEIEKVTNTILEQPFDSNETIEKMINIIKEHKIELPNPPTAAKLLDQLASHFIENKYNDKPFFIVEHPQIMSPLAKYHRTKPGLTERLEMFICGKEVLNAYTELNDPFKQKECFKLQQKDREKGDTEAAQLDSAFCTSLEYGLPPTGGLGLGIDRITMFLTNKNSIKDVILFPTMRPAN

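Lysine-tRNA ligase, Plasmodium falciparum 3D7 (UniProt Q8IDJ8). Enzyme assay of the cytosolic lysyl-tRNA synthetase in 384-well plates, read by luminescence. Compounds at 30 µM. Direction is inferred from only a few compounds that gave an IC50; most scored high, so higher reads as stronger inhibition. Size under these conditions: about 69,000 compounds, about 49 of them at 50% or above in at least one test.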

Each number is a percent effect as filed.
The controls that fix the scale are not given in the record; negative values are as filed.
This is an unselected part of the compounds tested.

CC1CN(C(=O)NCCNc2cnccn2)CCO1 (stereo not drawn) gave -1.047%.
O=C(NCCNc1ncccn1)C1CC(=O)N(CC2CC2)C1 (stereo not drawn) gave -3.776%.
CCOC(=O)N[C@H]1C[C@@H](C(=O)NCCc2cccc(Cl)c2)N(C)C1 gave 3.54%.
N#Cc1ccnc(N2CCN(C3CCOC3=O)CC2)c1 (stereo not drawn) gave 10.17%.
COCCN1CCCC(c2ncc(C(=O)N(C)C)c(C)n2)C1 (stereo not drawn) gave -0.9458%.
Cn1ccnc1CN1CCC2(CC1)COCCN(S(C)(=O)=O)C2 gave 0.5458%.
CNC(=O)N1Cc2cc(F)ccc2C2(CCN(C)CC2)C1 gave -1.204%.
Cc1nc[nH]c1CN1CCN(C2CCOCC2)CC(C(N)=O)C1 (stereo not drawn) gave 2.396%.
CC(C)CC(NC(=O)c1ccco1)c1nnc2ccccn12 (stereo not drawn) gave 2.471%.
Cc1[nH]c2ccccc2c1-c1ccnc(NCCN2CCOCC2)n1 gave 0.4426%.
O=C(NCc1cccs1)NCC1(O)CCc2ccccc2C1 (stereo not drawn) gave 0.4352%.
CN1CCCC1CNC(=O)CCCOc1ccc(F)cc1 (stereo not drawn) gave 0.03638%.
CC1CN(CC(=O)Nc2cccnc2)CCN1c1nccs1 (stereo not drawn) gave 1.893%.
CNC(=O)CS(=O)(=O)C1CCN(S(=O)(=O)c2ccccc2Cl)CC1 gave -1.369%.
COc1ccc(C(=O)N2CCC(c3nccn3C(C)C)CC2)cc1OC gave -1.238%.
CCc1nc(C2CCCN2Cc2ccn(C)c(=O)c2)no1 (stereo not drawn) gave 1.037%.
O=C(CCCn1cncn1)N1CCCCC1c1nccs1 (stereo not drawn) gave 1.944%.
CC(C)CCNC(=O)c1c(-n2cnnn2)sc2c1CCCC2 gave -0.3541%.
CN(c1ncccc1CNC(=O)c1cscn1)C1CCCCC1 gave -0.6505%.
CN(C)CCOCC1CN(Cc2ccsc2)Cc2ccnn2C1 (stereo not drawn) gave 1.282%.
O=C(NCC1(O)CCOC1)NCC1(c2ccccc2Cl)CCC1 (stereo not drawn) gave 1.327%.
Cc1ccccc1C1(C(=O)NCCN2CCCC2)CCOCC1 gave 5.178%.
O=C(c1cnccn1)N1CCOCC2(CCN(C3CCOCC3)C2)C1 (stereo not drawn) gave 2.741%.
Cc1ncsc1CCN(C)Cc1ccc(Br)o1 gave 2.188%.
CN(C(=O)c1cc(F)ccc1F)[C@@H]1CC[C@@H](O)[C@@H]1O gave -1.337%.
O=C(Cc1ccccc1)C1CCCN(Cc2cncn2C2CCCC2)C1 (stereo not drawn) gave 7.003%.
CC(C)(C)c1ncc(C(=O)NCCNS(C)(=O)=O)s1 gave 0.04727%.
Cn1nc(C2CC2)c2c1NC(=O)CC2c1ccc(CN2CCCCC2)s1 (stereo not drawn) gave -0.2013%.
CN1CC(=O)N(c2cccc(F)c2)CC12CCNC2 (stereo not drawn) gave -1.316%.
CCc1ccc2nc(-c3cnn(C)c3)cc(C(=O)N3CCCC3)c2c1 gave -2.327%.
CCc1noc(CN(C)CCC(=O)Nc2ccccc2C#N)n1 gave 2.128%.
CC(C)(NS(C)(=O)=O)C(=O)NCc1cccc(Br)c1 gave 5.717%.
Cc1ccc(O)c(C(=O)N2CCCC2CC(=O)c2cnn(C)c2)c1 (stereo not drawn) gave -4.6%.
Cc1cccc(C2CCCN(C(=O)CN3CCCC3=O)C2)c1 (stereo not drawn) gave 0.7459%.
Cc1nnnn1-c1ccc(CC(=O)N2CCOCC(O)C2)cc1 (stereo not drawn) gave 3.812%.
O=C(NC1CC1)[C@H]1C[C@H]2OCC[C@H]2N(Cc2ccc3ccccc3n2)C1 gave 1.5%.
CN(CCc1ccc(F)cc1)Cc1nc2c(cnn2C)c(=O)[nH]1 gave 1.101%.
NC(=O)c1cnc2n1CCN(C(=O)c1ccc(Cn3cccc3)cc1)C2 gave -3.087%.
CCc1nnc2n1CCN(C(=O)c1cc3c(F)cccc3[nH]1)C2 gave 1.772%.
COCCC(=O)N1CCC(c2nc(O)cc(-c3ccncc3)n2)C1 (stereo not drawn) gave 5.848%.
CC(C)Cc1ncc2c(n1)CN(C(=O)c1ccc(Cn3ccnc3)o1)C2 gave 5.272%.
CCCC(=O)Nc1cccc([C@H]2C[C@@H](NC(C)=O)CCO2)c1 gave -0.3003%.
CC(C)NC(=O)[C@@H]1CCO[C@@H]2CCN(c3ncccn3)C[C@@H]21 gave 3.686%.
CCC(C)N(Cc1ccncc1)C(=O)CCSC (stereo not drawn) gave 3.332%.
O=C(NCCc1cc2nc(-c3ccncc3)ccn2n1)C1CC1 gave 1.005%.
CCOCC1C[C@@H]2OCCN(C(=O)c3ccc[nH]3)[C@H]2C1 (stereo partly drawn) gave 3.882%.
CC(C)(O)CCc1cccc(C(=O)NCc2nccs2)c1 gave 3.227%.
CC(NC(=O)CCn1cncn1)c1nnc2n1CCCCC2 (stereo not drawn) gave 6.847%.
Cc1cccc(C2CCN(S(=O)(=O)c3cn(C)cn3)CC2)n1 gave 1.375%.
CCCc1nncn1-c1cc(OC)ccc1OC gave 3.346%.
Cc1cc(C)n(-c2cncc(N3CCN(C(=O)CN(C)C)CC3)n2)n1 gave 6.073%.
Cc1cncc(C(=O)N2CCC3(CC2)C(=O)Nc2ccccc23)c1 gave 3.419%.
CCC(C#N)NC(=O)CCNC(=O)C(C)(C)C (stereo not drawn) gave 4.677%.
c1cc(-c2noc(-c3cc(C4CC4)on3)n2)cc(N2CCCCC2)n1 gave 2.018%.
COc1cc(CSc2nnc(C)n2CC(N)=O)ccc1SC gave 7.128%.

For reference, 3 entries once more:

| compound | Percent Effect |
|---|---|
| `CN(c1ncccc1CNC(=O)c1cscn1)C1CCCCC1` | -0.6505 |
| `Cc1cc(C)n(-c2cncc(N3CCN(C(=O)CN(C)C)CC3)n2)n1` | 6.073 |
| `O=C(CCCn1cncn1)N1CCCCC1c1nccs1` (stereo not drawn) | 1.944 |

Source: ChEMBL document CHEMBL3988442, “University of Dundee, Small-Polar-MMV Screening Library” (2021).